No constants are given. Whether binding was seen depends on the method and setting. In cells and extracts the contact can be indirect. Some binding calls cover weakened binding; strength is not graded here.

Protein sequences, listed by entry. Tags and fused reporters are not part of them. Lines headed by an entry give the natural chain unless they say otherwise; changes in a name come on top.
UniProt P56546: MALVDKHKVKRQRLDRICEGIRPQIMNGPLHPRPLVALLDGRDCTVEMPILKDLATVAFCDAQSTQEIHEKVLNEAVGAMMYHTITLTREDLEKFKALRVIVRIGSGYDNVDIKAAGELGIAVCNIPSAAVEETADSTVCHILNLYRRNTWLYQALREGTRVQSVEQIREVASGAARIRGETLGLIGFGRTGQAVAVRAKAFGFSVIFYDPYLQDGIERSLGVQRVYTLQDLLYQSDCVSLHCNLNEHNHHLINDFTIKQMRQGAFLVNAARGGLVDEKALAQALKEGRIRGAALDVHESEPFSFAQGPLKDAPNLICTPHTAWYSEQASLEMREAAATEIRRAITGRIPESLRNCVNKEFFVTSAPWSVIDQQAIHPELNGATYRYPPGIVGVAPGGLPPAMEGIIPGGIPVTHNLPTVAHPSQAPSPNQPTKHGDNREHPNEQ
UniProt Q09472: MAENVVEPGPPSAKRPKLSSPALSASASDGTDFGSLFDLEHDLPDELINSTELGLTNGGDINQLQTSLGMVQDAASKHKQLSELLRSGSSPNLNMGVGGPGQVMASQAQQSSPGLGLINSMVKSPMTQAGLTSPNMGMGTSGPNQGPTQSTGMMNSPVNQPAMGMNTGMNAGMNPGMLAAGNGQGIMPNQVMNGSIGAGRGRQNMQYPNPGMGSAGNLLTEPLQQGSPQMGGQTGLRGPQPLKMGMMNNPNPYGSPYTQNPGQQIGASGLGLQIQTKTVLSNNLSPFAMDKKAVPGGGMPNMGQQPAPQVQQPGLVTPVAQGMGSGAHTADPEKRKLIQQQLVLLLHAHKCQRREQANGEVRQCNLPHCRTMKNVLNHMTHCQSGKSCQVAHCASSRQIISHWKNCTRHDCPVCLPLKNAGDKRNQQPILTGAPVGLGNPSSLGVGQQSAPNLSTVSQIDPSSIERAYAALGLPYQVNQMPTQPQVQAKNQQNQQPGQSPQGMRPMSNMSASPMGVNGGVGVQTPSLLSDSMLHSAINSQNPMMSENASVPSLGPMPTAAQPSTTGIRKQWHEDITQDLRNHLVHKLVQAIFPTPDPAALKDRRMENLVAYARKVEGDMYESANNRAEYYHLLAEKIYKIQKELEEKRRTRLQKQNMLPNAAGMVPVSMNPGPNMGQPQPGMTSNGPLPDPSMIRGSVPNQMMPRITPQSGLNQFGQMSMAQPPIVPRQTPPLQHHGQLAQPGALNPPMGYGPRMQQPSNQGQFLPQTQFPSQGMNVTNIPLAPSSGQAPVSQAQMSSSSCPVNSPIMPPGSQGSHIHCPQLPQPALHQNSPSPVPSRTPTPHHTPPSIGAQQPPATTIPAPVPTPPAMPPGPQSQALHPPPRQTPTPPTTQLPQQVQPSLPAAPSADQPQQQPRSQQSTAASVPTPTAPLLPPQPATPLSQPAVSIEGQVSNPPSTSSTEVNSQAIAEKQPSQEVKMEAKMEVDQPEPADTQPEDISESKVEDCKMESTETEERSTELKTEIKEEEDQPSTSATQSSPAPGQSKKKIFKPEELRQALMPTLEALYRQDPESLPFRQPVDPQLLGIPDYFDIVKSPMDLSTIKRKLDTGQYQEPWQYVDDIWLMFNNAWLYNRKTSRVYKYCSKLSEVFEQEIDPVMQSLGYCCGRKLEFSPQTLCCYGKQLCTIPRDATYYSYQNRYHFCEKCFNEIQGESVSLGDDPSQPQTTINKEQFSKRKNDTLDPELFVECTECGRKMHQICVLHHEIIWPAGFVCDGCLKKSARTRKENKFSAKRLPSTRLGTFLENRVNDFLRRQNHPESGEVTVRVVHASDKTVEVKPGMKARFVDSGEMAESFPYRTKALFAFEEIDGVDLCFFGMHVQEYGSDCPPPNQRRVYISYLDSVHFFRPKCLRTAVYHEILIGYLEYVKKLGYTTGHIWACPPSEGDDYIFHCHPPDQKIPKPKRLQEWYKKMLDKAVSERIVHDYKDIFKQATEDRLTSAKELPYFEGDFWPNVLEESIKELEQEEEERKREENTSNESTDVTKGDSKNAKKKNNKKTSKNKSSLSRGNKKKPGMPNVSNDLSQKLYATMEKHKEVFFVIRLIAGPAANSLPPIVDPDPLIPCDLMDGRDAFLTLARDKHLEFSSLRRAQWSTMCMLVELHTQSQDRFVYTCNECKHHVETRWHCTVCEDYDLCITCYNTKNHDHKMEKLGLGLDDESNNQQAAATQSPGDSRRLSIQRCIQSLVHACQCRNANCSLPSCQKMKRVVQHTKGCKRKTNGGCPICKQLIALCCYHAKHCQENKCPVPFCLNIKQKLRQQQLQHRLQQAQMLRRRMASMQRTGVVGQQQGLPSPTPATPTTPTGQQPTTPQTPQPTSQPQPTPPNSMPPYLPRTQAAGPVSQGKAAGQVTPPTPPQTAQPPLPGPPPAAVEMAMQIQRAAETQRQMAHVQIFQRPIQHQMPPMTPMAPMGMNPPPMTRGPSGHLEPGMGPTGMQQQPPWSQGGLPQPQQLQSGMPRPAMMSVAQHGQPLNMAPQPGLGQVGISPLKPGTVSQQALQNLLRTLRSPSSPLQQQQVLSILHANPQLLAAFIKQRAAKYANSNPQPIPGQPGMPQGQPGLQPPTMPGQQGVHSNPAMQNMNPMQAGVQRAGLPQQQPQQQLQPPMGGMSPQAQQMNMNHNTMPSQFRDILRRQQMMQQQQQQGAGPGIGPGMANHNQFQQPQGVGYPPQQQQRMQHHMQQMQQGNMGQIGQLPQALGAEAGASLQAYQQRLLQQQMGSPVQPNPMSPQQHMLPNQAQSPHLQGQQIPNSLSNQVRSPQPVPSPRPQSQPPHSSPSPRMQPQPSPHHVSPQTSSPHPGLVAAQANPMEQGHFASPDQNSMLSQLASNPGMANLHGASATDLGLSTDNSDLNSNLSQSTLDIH

Assay [1] concerns the target CtBP1 (C-terminal binding protein 1), mouse, full length, HA-tagged and Flag-tagged copies (mouse) (UniProt O88712). The assay can be described thus: co-IP; COS7 cells co-transfected with CtBP1-HA and CtBP1-Flag; NP-40 buffer lysate, untreated control, incubated at 37 °C for 20 min; IP with anti-Flag M2 antibody and protein A/G-Sepharose, blot with anti-HA.
Assay [2] shares this target. The assay can be described thus: co-IP; as the untreated control, but the lysate was incubated with 10 mM sodium lactate + 10 µM NADH at 37 °C for 20 min before IP, to promote CtBP dimerization; IP with anti-Flag, blot with anti-HA.
For assay [3], the target named is FLAG-tagged G189A CtBP2 (UniProt P56546). Put plainly: co-IP; HEK293 cells transfected with FLAG-tagged WT CtBP2 or G189A CtBP2, untreated or treated with 2DG or CoCl2 for 30 min; M-PER lysate with benzonase; anti-Flag M2 agarose overnight; p300 detected in the immunoprecipitate and normalized to p300 in the lysate input.
The target in assay [4] is FLAG-tagged wild-type CtBP2 (UniProt P56546). The description is as above.

For the substance “CtBP1 (C-terminal binding protein 1), mouse, full length, HA-tagged and Flag-tagged copies (from UniProt O88712 1-441)”, the binding result in assay [1] is listed as “binds weakly”; in assay [2], “binds”.

“p300 (acetyltransferase p300) (from UniProt Q09472 1-2414)”: the binding result in assay [3] and in assay [4] was “binds” in each case.

Values taken from paper PMC5608947.
